Experimental findings from patent US7169892B2 (Astellas Pharma Inc., priority 2003, dated 2007) are described below.

Where no end group is shown, it is not given here. The star is where a group is joined. Fmoc = O=C(OCC1c2ccccc2-c2ccccc21)*

A short description of the series: general procedure: Fmoc solid-phase peptide synthesis; Fmoc-Gly-Wang Resin; HBTU/DIEA. To be noted: whole synthesis.
Where [1] appears, read: RP-HPLC peak surface area ratio.

Take “9-fluorenylmethyloxycarbonyl (Fmoc)-glycyl-prolyl-glutamyl-glycyl-isoleucyl-alanyl-glycyl -tryptophanyl-glycine”: the “final HPLC purity” value (RP-HPLC peak area ratio) is on record as 99.5%.

In the case of Fmoc-GPLGIAGQG, under setting [1], the “final HPLC purity” value is reported as 98.7%.

On to Fmoc-GPQGIWGQG, for which, under setting [1], the “final HPLC purity” value worked out at 98.4%.
